Laboratory results as given in patent publication US20200289476A1 (University of Houston System, priority 2017, published 2020).
Converted amounts (≈) assume the structure as drawn. Where two headings read alike, the source gives them in different places.

Legend:
physchem = conditions: pH 7, water
[1] = rats, product monograph, cited from earlier work

Q: With `Nc1nc2ccc(OC(F)(F)F)cc2s1` [Riluzole, 6-trifluoromethoxy-2-benzothiazolamine] as the compound, how does the solubility (physchem) read?
A: The solubility was 300 µg/mL (≈ 1280 µM).

Q: And the LD50 ([1]; intravenous)?
A: Its LD50 is 21 mg/kg.

Q: What about the LD50 ([1]; oral) of the same compound?
A: The LD50 was 45 mg/kg.
